# Results of single-concentration screens

From ChEMBL document CHEMBL3988442, “University of Dundee, Small-Polar-MMV Screening Library” (2021).

A: 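Growth of Mycobacterium tuberculosis over 3 days (7H9 medium with glucose and tyloxapol); the read-out is not stated. Tested at 50 µM. Higher reads as more growth inhibition (inferred: compounds with an IC50 in retests scored well above the rest). Size under these conditions: about 69,000 compounds, about 760 of them at 50% or above in at least one test.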
B: 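Whole-cell growth test on Mycobacterium tuberculosis, read after 4 days in a medium based on cholesterol and the lipid DPPC; the read-out is not stated. Tested at 50 µM. The record gives no direction; compounds that gave an IC50 in retests scored well above the rest, so higher reads as more growth inhibition. Size under these conditions: about 69,000 compounds, about 370 of them at 50% or above in at least one test.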

Results are given as percent effect. How 0% and 100% were set is not recorded. Most values in the screen are low, and negative values occur. The compounds are a random part of those screened. Two or more numbers in one place are separate tests of the same structure; such repeats can differ widely.

For CC(C)(C)c1noc(CCC(=O)N2CCNC(=O)C2)n1 the result was A: -17.42% and 5.529%; B: 2.665%.
For Cc1ccc(-c2ncc(C(=O)NCCNc3ncccn3)s2)c(C)c1 the result was A: 23.08%; B: 3.921%.
For O=C(c1cc(-c2ccn(CC3CC3)n2)n2ccccc12)N1CCCO1 the result was A: 41.81% and 44.47%; B: 31.23%.
For O=C(c1cccc(F)c1)N1CCOC(c2nc(-c3ncccn3)no2)C1 (configuration not stated) the result was A: 12.54%; B: -13.85%.
For COC(=O)CC(c1ccc(OC)c(O)c1)c1oc(C)cc(=O)c1O (configuration not stated) the result was A: -7.28%; B: -7.782%.
For Cn1cccc1C(O)CNC(=O)COc1ccc(Cl)cc1Cl (configuration not stated) the result was A: 11.07% and 24.22%; B: -2.115%.
For CC(=O)N1CCCN(C(=O)c2ccn(-c3cccc(Cl)c3)n2)CC1 the result was A: 0.489%; B: -16.11%.
For O=C(O)C(F)(F)F.[H][C@@]12CCN(Cc3sccc3C)C[C@]1(C(=O)N1CCCO1)CCO2 the result was A: -41.8%; B: -8.301%.
For Cc1ccsc1C(=O)NCC1COCc2c(C)nnn2C1 (configuration not stated) the result was A: 0.8152% and -24.66%; B: -26.13%.
For CC(=O)c1c(F)cccc1NC1CCN(C(=O)C2CCCCC2)CC1 the result was A: 11.54%; B: 3.12% and 0.6715%.
For O=C(NC1CC(=O)N(C2Cc3ccccc3C2)C1)c1ccoc1 (configuration not stated) the result was A: -18.36%; B: 7.73% and 15.24%.
For N[C@H]1CN(C(=O)c2ccccc2OCCc2ccccc2)C[C@@H]1C1CC1 the result was A: 8.02% and -27.29%; B: 6.048%.
For CN1CCN(Cc2cn3c(n2)CN(Cc2ccccn2)CC3)CC1 the result was A: -13.18%; B: -27.6%.
For Cc1ccc(C2CN(CCS(C)(=O)=O)CCO2)c(C)c1 (configuration not stated) the result was A: -6.181% and 4.93%; B: -14.27%.
For CC(=O)N(Cc1noc(C2CC2)n1)C1CCN(Cc2ccncc2)C1 (configuration not stated) the result was A: -5.022%; B: 3.991%.
For CC(C)(C)OC(=O)NCC1CCN(C(=O)c2ccc(F)cc2F)C1 (configuration not stated) the result was A: -19.4%; B: -8.806% and 2.388%.
For Cc1cc(C)nc(C2CCN(C(=O)CCn3nnc4ccccc43)C2)n1 (configuration not stated) the result was A: 1.519%; B: -1.68%.
For C=C(C)COc1ccccc1NC(=O)NC1CCOCC1 the result was A: -8.559%; B: 20.73%.
For CCc1cc(NCc2cccnc2N2CCCCC2)n2ncnc2n1 the result was A: -21.81%; B: -11.27%.
For Cn1nnc2c(N3CC(C(=O)NCc4ccccc4F)C3)ncnc21 the result was A: -0.5512%; B: 2.68%.
For O=C(Nc1ccccc1)C1CCCN(C(=O)Cn2cncn2)C1 (configuration not stated) the result was A: -12.93%; B: -12.33%.
For CC(C(=O)Nc1nccs1)N(C)Cc1cccc(C#N)c1 (configuration not stated) the result was A: 13.7%; B: 3.922%.
For COCc1noc(-c2ccc(N3CCCCC3COC)nc2)n1 (configuration not stated) the result was A: 4.714%; B: 6.207%.
For CC(Cn1cccn1)NCc1csc(-c2ccc3c(c2)OCO3)n1 (configuration not stated) the result was A: 46.74%; B: 48.08%.
For CN(C)C(=O)COc1ccccc1CNC1CCc2ncnn2C1 (configuration not stated) the result was A: 4.946% and -2.313%; B: -1.384%.
For CCc1ncncc1C(=O)NCCNC(=O)c1ccc(C)c(F)c1 the result was A: 1.446%; B: 2.128% and 1.661%.
For Cl.Cl.NCC(=O)N1CCCC(c2ccnc(Nc3cnccn3)n2)C1 (configuration not stated) the result was A: -0.3715%; B: 11.47%.

Some entries from above, unchanged:

Compound	A	B
N[C@H]1CN(C(=O)c2ccccc2OCCc2ccccc2)C[C@@H]1C1CC1	8.02 and -27.29	6.048
CC(C(=O)Nc1nccs1)N(C)Cc1cccc(C#N)c1 (configuration not stated)	13.7	3.922